Measured values from patent publication US8298781B2, “Compositions and methods for characterizing and regulating olfactory sensation” (Duke University, priority 2007, dated 2012).

Columns and labels:
[1] = system: human subjects; assay: Human olfactory psychophysics: detection thresholds (single staircase method); type: in vivo; details: two sessions at least four days apart
Experimental: Human olfactory psychophysics. All human subjects gave informed consent to participate in this study and were tested in a well-ventilated room. Normal human subjects (n=412; 218 female, 194 male; median age 34, age range 19-75) were pre-screened to exclude pregnant women and those with medical conditions causing general impairment of the sense of smell. All subjects completed two replicates of the test separated by at least 4 days. Odors were presented in amber vials as previously described (see, e.g., Keller, A., et al., Nat Neurosci 7, 337-338 (2004); herein incorporated by reference in its entirety) using bar-coded symbols to ensure that subjects were blind to the identity of all odors. […] Thresholds were calculated using the single staircase method with seven reversals (see, e.g., Doty, R. L., et al., Chem Senses 20, 645-656 (1995); Doty, R. L. & Laing, D. G. in Handbook of Olfaction and Gustation (ed. Doty, R. L.) pp. 203-228 (Marcel Dekker, Inc., New York, 2003); each of which are herein incorporated by reference in their entireties). […]
Threasholding. Detection thresholds (FIG. 3c and FIG. 5b-c) were determined using the “Single Staircase Threshold Detection Method” (see, e.g., Buck, L., et al., Cell 65, 175-187 (1991); Menashe, I., et al., Nat Genet. 34, 143-144 (2003); each of which are herein incorporated by reference in their entireties). […]

[2] = system: human subjects; assay: Human olfactory psychophysics: odor profiling with 146 descriptors; type: in vivo; details: out of 146 descriptors
Experimental: Human olfactory psychophysics. All human subjects gave informed consent to participate in this study and were tested in a well-ventilated room. Normal human subjects (n=412; 218 female, 194 male; median age 34, age range 19-75) were pre-screened to exclude pregnant women and those with medical conditions causing general impairment of the sense of smell. All subjects completed two replicates of the test separated by at least 4 days. Odors were presented in amber vials as previously described (see, e.g., Keller, A., et al., Nat Neurosci 7, 337-338 (2004); herein incorporated by reference in its entirety) using bar-coded symbols to ensure that subjects were blind to the identity of all odors. The intensity and valence of 66 odors at two concentrations (“high” and “low”) and two solvents was rated using a 7-point scale. Thresholds were calculated using the single staircase method with seven reversals (see, e.g., Doty, R. L., et al., Chem Senses 20, 645-656 (1995); Doty, R. L. & Laing, D. G. in Handbook of Olfaction and Gustation (ed. Doty, R. L.) pp. 203-228 (Marcel Dekker, Inc., New York, 2003); each of which are herein incorporated by reference in their entireties). Threshold tests included both steroids as binary dilutions from […] (binary dilution 6) to 1: 134,217,728 (binary dilution 27). […]
Assigning descriptors to odors. Subjects assessed the quality of six odors using an odor profiling method that has shown to produce stable profiles of odorants. […] Odor profiling typically took five minutes per odorant and was performed as a computer-controlled selftest in which the subject's responses were directly recorded. […] The descriptors used to describe the other four odors (vanillin, pentadecalactone, androstenone, and propylene glycol) were evaluated. […]

| SMILES | average difference between the thresholds determined on the two days [1] | number of descriptors used in more than 100% of the sessions [2] |
| --- | --- | --- |
| C[C@@]12C=CC[C@H]1[C@@H]1CCC3=CC(=O)CC[C@]3(C)[C@H]1CC2 [androstadienone, androsta-4,16-dien-3-one] | five | – |
| C[C@]12CCC(=O)C[C@@H]1CC[C@@H]1[C@@H]2CC[C@]2(C)C=CC[C@@H]12 [androstenone, 5α-androst-16-en-3-one] | three | 21/146 |
| O=C1CCCCCCCCCCCCCCO1 [pentadecalactone] | – | 19/146 |
| COc1cc(C=O)ccc1O [vanillin] | – | 23/146 |
